Measurements published in paper PMC5768779.
These are yes or no findings as the source states them, for the method shown. Some entries that bind do so weakly or less than the wild type.

The chains behind the UniProt entries cited, without tags or fusion partners.
UniProt Q8TAF3: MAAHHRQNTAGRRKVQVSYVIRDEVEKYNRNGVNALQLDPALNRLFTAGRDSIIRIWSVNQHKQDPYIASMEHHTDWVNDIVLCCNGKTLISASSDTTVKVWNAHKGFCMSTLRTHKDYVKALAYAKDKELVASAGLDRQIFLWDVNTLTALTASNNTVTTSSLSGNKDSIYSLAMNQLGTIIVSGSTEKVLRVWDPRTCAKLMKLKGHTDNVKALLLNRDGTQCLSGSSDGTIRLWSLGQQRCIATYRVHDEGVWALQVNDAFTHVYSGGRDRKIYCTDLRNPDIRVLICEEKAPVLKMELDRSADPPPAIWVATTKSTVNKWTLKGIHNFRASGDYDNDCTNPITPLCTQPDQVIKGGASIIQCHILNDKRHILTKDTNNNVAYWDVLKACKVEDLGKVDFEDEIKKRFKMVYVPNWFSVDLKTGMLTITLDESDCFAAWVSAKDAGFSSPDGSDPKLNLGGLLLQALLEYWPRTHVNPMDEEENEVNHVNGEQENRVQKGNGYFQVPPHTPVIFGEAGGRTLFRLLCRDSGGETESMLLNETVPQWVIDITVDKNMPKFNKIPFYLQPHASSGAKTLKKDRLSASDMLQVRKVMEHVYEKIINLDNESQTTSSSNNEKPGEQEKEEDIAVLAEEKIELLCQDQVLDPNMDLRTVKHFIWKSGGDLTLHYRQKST

Target: T1, USP1 (UniProt O94782)
T1 sequence: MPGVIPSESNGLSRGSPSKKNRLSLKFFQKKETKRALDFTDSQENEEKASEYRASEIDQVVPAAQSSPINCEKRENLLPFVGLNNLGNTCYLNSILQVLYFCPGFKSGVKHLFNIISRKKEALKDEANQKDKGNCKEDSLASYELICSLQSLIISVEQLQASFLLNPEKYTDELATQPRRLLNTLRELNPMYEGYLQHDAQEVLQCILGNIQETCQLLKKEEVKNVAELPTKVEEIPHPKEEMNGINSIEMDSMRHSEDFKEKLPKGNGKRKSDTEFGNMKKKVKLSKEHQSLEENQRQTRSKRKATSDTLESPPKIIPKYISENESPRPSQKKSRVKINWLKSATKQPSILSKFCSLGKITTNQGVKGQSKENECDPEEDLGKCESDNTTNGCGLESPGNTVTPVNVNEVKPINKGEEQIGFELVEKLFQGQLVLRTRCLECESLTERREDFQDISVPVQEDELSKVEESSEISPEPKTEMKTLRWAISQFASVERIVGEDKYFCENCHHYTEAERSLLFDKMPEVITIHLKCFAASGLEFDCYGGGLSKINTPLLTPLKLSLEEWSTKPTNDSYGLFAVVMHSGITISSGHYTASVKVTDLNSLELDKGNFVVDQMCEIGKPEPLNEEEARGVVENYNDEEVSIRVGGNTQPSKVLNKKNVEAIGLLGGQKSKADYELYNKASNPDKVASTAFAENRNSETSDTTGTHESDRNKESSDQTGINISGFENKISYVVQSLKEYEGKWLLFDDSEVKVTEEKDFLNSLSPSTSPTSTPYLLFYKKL
Assay: co-purification (His affinity, then Strep affinity, SEC); coexpressed in Sf9 cells; His-affinity column, then Strep-affinity column, then Superdex 200; 50 mM TRIS pH 8, 150 mM NaCl, 2 mM TCEP

binding: binds
Substance: UAF1 (from UniProt Q8TAF3 1-677)
